Source: PubChem BioAssay AID1688 (National Center for Advancing Translational Sciences (NCATS), 2009)
Among all 220,000 compounds or so, about 2,400 (1.1%) were called active. Inconclusive means that the source gave no clear call. Such entries were picked first, then a sample of the others. The call rests on the fitted dose curve; in most records, active means well fitted inhibition curve with a large enough effect; inconclusive means small, poorly fitted or top-dose-only effect, or effect the other way; inactive means no such curve, though single readings can be large or run the other way. Where the call is inconclusive, the potency comes from a doubtful curve fit.

Assay: qHTS Multiplex Assay to Identify Dual Action Probes in a Cell Model of Huntington: Aggregate Formation (GFP); further: nearly all actives have a fitted effect of over 60% in size
Conditions: PC12 HttQ103-GFP aggregates, Acumen cytometry, 40 h; activity change, negative = inhibition: at 46.1 µM (top of the series) unless noted
Summary of the method: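 PC12 cells stably carrying ecdysone-inducible HTT exon 1 Q103–GFP were induced with tebufenozide (100 nM final) and treated with library compounds in titration. GFP aggregates in lysates were counted by laser scanning cytometry.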
On the % scale 0 is the no-effect control and ±100 the full control effect; potency means the concentration at half of the fitted maximal effect.

Row | Structure (SMILES) | Potency | activity change, negative = inhibition
1 | O=C(CN1CCN(Cc2ccccc2F)C1=O)NCc1ccco1 | active: 0.126 µM | –
2 | O=C(NCCc1csc(-c2cccnc2)n1)c1ccc(Br)o1 | inconclusive: 1 µM [activator, single point] | –
3 | O=C(CCl)Nc1cn(-c2ccccc2)nc1-c1ccc(F)cc1 | inconclusive: 35.5 µM [inhibitor, single point] | –
4 | CN(CC(=O)Nc1nc2ccccc2s1)S(=O)(=O)c1ccc(Cl)cc1 | inconclusive: 35.5 µM [inhibitor, single point] | –
5 | CCc1nc(SCC(=O)N2CCN(C(=O)c3ccco3)CC2)c2c3c(sc2n1)CCCC3 | inconclusive: 3.55 µM [activator, partial curve] | –
6 | Cc1cc(C)n(-c2cc(N3CCN(C(=O)c4cccc(Br)c4)CC3)ccc2[N+](=O)[O-])n1 | inactive | –
7 | O=C(O)CCc1ccc(-c2ccc(Cl)cc2)o1 | inconclusive: 28.2 µM [activator, single point] | –
8 | O=C(CCOc1ccccc1)Nc1nnc(-c2ccc3c(c2)OCCO3)o1 | inconclusive: 35.5 µM [inhibitor, single point] | –
9 | C=CCn1c(=NC(=O)c2cccs2)sc2cccc(OC)c21 | inconclusive: 5.62 µM [activator, single point] | –
10 | CCOC(=O)C1CCN(S(=O)(=O)c2cccc(-c3cn4ccccc4n3)c2)CC1 | inconclusive: 1 µM [inhibitor, single point] | –
11 | Nc1nc(N2CCN(C(=O)c3ccco3)CC2)nc2ccc(Br)cc12 | inconclusive: 22.4 µM [inhibitor, single point] | –
12 | CC(C)CC(C(=O)Nn1cnnc1)N1C(=O)c2ccccc2C1=O (stereo not drawn) | inactive | –
13 | CCOc1ccc(-n2c(C)nc3cc(C(=O)NCc4ccco4)ccc32)cc1 | inactive | –
14 | CCN(C(=O)CSc1nnc2c3ccccc3n(CC)c2n1)C1CCS(=O)(=O)C1 (stereo not drawn) | inactive | –
15 | Cc1ccc(C2(C)NC(=O)N(CC(=O)NC(=O)NC3CCCC3)C2=O)cc1 (stereo not drawn) | inactive | –
16 | c1ccc(-c2ccccc2OCCn2cncn2)cc1 | inconclusive: 5.62 µM [inhibitor, single point] | –
17 | CCOC(=O)c1c(NC(=O)c2ccco2)sc2c1CCCC2 | inactive | –
18 | Cc1ccc(C(=O)NCC(=O)NCC(=O)OCC(=O)c2ccc([N+](=O)[O-])cc2)cc1 | inactive | –
19 | O=C(Cc1ccccc1)NCC(=O)OCC(=O)c1ccc(Cl)c([N+](=O)[O-])c1 | inconclusive: 35.5 µM [inhibitor, single point] | –
20 | Cc1ccc(NS(=O)(=O)c2ccc(Cl)c(NC(=S)NC(=O)C3CCCCC3)c2)cc1Cl | inconclusive: 35.5 µM [inhibitor, single point] | –
21 | FC(F)Oc1ccc(NC(=S)N2CCc3ccccc32)cc1 | inconclusive: 35.5 µM [inhibitor, single point] | –
22 | COc1ccc(/C=N/NC(=O)C(C)n2cnc3ccccc3c2=O)cc1OC (stereo not drawn) | inconclusive: 0.562 µM [activator, full curve, poor fit] | –
23 | Cc1ccccc1C(=O)NC(CC(C)C)C(=O)Nc1cccc(S(=O)(=O)N(C)C)c1 (stereo not drawn) | inconclusive: 0.501 µM [activator, full curve, poor fit] | –
24 | COc1ccc2c(c1)CCc1c(C(=O)NCc3ccc(Cl)cc3)noc1-2 | – | inactive: -9.79% [at 9.22 µM]
25 | CC1(C)Cc2nc3oc4c(=O)n(CC(=O)Nc5ccccc5)cnc4c3cc2CO1 | inactive | –

Gathered by group, the compounds so far containing two or more sulfur atoms (five)
Row | Structure (SMILES) | Potency | activity change, negative = inhibition
4 | CN(CC(=O)Nc1nc2ccccc2s1)S(=O)(=O)c1ccc(Cl)cc1 | inconclusive: 35.5 µM [inhibitor, single point] | –
5 | CCc1nc(SCC(=O)N2CCN(C(=O)c3ccco3)CC2)c2c3c(sc2n1)CCCC3 | inconclusive: 3.55 µM [activator, partial curve] | –
9 | C=CCn1c(=NC(=O)c2cccs2)sc2cccc(OC)c21 | inconclusive: 5.62 µM [activator, single point] | –
14 | CCN(C(=O)CSc1nnc2c3ccccc3n(CC)c2n1)C1CCS(=O)(=O)C1 (stereo not drawn) | inactive | –
20 | Cc1ccc(NS(=O)(=O)c2ccc(Cl)c(NC(=S)NC(=O)C3CCCCC3)c2)cc1Cl | inconclusive: 35.5 µM [inhibitor, single point] | –

Next part:

Row | Structure (SMILES) | Potency | activity change, negative = inhibition
26 | CCCCn1c(O)c(N=NC(=O)c2ccccc2NS(=O)(=O)c2cccs2)c2ccccc21 | inactive | –
27 | CCOC(=O)CN1C(=O)C(CC)Oc2ccc(Cl)cc21 (stereo not drawn) | inconclusive: 0.398 µM [inhibitor, full curve, poor fit] | –
28 | N=c1c2c(-c3ccccc3)c(-c3ccccc3)n(Cc3ccccc3)c2ncn1CCCn1ccnc1 | inconclusive: 15.8 µM [inhibitor, single point] | –
29 | Cc1ccc(CNC(=O)C2CCN(S(=O)(=O)c3cccs3)CC2)o1 | inconclusive: 35.5 µM [activator, partial curve] | –
30 | Cc1cccc(NC(=O)Nc2cccc(Oc3c(F)c(F)c(F)c(F)c3F)c2)c1 | inconclusive: 15.8 µM [inhibitor, single point] | –
31 | O=S(=O)(NCC1CCCO1)c1ccc(Oc2ccccc2)cc1 (stereo not drawn) | inconclusive: 35.5 µM [inhibitor, single point] | –
32 | CCOC(=O)c1sc(=S)n(-c2ccc(C)cc2)c1N | inactive | –
33 | OC1(c2ccc(OC(F)F)cc2)CSC(=Nc2cccnc2)N1Cc1ccco1 (stereo not drawn) | inconclusive: 17.8 µM [inhibitor, single point] | –
34 | COCCCn1c(SCC(=O)n2c(C)c(C)c3ccccc32)nnc1-c1ccoc1C | inactive | –
35 | O=C(c1ccccc1)N1C(=O)C(c2ccccc2)Oc2ccccc21 (stereo not drawn) | – | inactive: -4.06% [at 9.22 µM]
36 | O=C(/C=C/c1c(Cl)cccc1Cl)NCCc1ccccc1 | inactive | –
37 | NCCc1nnc(SCc2c(F)cccc2Cl)o1 | – | inactive: 19% [at 9.22 µM]
38 | CC1CCCN(C(=O)CSc2nc3ccccc3o2)C1 (stereo not drawn) | inactive | –
39 | Cc1ccc(NC(=O)CN2CCC(C(=O)c3ccc4c(c3)OCCO4)CC2)cc1 | inconclusive: 22.4 µM [inhibitor, single point] | –
40 | CN(C)S(=O)(=O)c1ccc(/C(O)=C2/C(=O)C(=O)N(Cc3cccnc3)C2c2cccs2)cc1 (stereo not drawn) | – | inactive: -96.7% [at 9.22 µM]
41 | COc1ccc(-c2nc(-c3ccccc3)c(-c3cc([N+](=O)[O-])ccc3C)[nH]2)cc1OC | inactive | –
42 | Cn1c(=O)oc2cc(S(=O)(=O)NC3CCN(Cc4ccccc4)CC3)ccc21 | inactive | –
43 | Cc1ccc(NC(=O)Cn2nnc3ccccc3c2=O)cc1 | inconclusive: 5.62 µM [inhibitor, single point] | –
44 | CC(C)(C)n1cnc2cc(NS(=O)(=O)c3ccccc3)ccc21 | inactive | –
45 | CN1/C(=C\C=C(/C#N)C(=O)Nc2ccccc2F)C(C)(C)c2ccccc21 | inactive | –
46 | COc1ccc(OCC(=O)N/N=C2\CCCc3ccccc32)cc1 | inconclusive: 3.16 µM [inhibitor, single point] | –
47 | Cc1ccc2nc(-c3ccncc3)c(NC3CCCC3)n2c1 | inconclusive: 14.1 µM [inhibitor, single point] | –
48 | N#Cc1cc2c(N)c(C(=O)Nc3ccccc3)sc2nc1N | inconclusive: 3.16 µM [inhibitor, partial curve, poor fit] | –
49 | CC(C)(C)c1cn(-c2ccccc2)c(=S)[nH]1 | inactive | –
50 | CCOc1cc(/C=C2\SC(=S)N(N3CCOCC3)C2=O)ccc1O | – | inactive: 4.04% [at 9.22 µM]

Row | Structure (SMILES) | Potency | activity change, negative = inhibition
51 | N/C(CN1CCCC1=O)=N\O | inactive | –
52 | Cc1ccc(C(=O)Nc2sc3c(c2C(=O)O)CCCCC3)o1 | inconclusive: 3.55 µM [inhibitor, partial curve] | –
53 | CCOC(=O)Nc1nc(C)c(C(=O)c2ccc(Cl)cc2)s1 | inconclusive: 35.5 µM [inhibitor, single point] | –
54 | Cc1ccc(S(=O)(=O)Nc2ccc3c(c2)OCCO3)cc1C | – | inactive: 4.17% [at 9.22 µM]
55 | O=C(CCS(=O)CCC(=O)NCc1ccccc1)NCc1ccccc1 | inconclusive: 1.26 µM [activator, partial curve] | –
56 | Cc1cccc(COCC(Cc2ccccc2)N2CCN(C(=O)c3cc(Cl)cc(Cl)c3)CCC2=O)c1 (stereo not drawn) | inconclusive: 35.5 µM [inhibitor, single point] | –
57 | COC(=O)c1ccc(Cc2ccc(C(=O)OC)o2)o1 | inconclusive: 0.794 µM [inhibitor, single point] | –
58 | COc1cc(=O)[nH]c(SCc2c(F)c(F)c(F)c(F)c2F)n1 | inactive | –
59 | CCCc1[nH]nc2c1C(c1ccc(OC)cc1OC)C(C#N)=C(N)O2 (stereo not drawn) | inconclusive: 3.98 µM [inhibitor, single point] | –
60 | CCC(c1nnc(SCC(=O)NCCc2ccc(Cl)cc2Cl)o1)N(C)C (stereo not drawn) | inactive | –
61 | COc1cc(N=c2ssnc2Cl)cc(OC)c1 | active: 10 µM | –
62 | Cc1ccc2nc(CSc3nnc(Nc4ccccc4C)s3)cc(=O)n2c1 | inactive | –
63 | Cc1ccccc1OCCn1cc(/C(N)=N/O)c2ccccc21 | inconclusive: 31.6 µM [inhibitor, single point] | –
64 | CS(=O)(=O)c1ccc(Cl)c(NC(=O)CCc2ccccc2)c1 | inactive | –
65 | Cc1c(C=O)c2ccccn2c1C(=O)c1ccccc1 | inconclusive: 17.8 µM [inhibitor, partial curve] | –
66 | O=C(NC1CCCCC1)c1nc2c(nnn2Cc2ccccc2Cl)c(=O)[nH]1 | inconclusive: 10 µM [inhibitor, partial curve] | –
67 | Cc1ccc(C(=O)N2CCN(c3ccc(NC(=S)NC(=O)Cc4ccccc4)cc3)CC2)cc1 | inconclusive: 12.6 µM [inhibitor, single point] | –
68 | O=C(c1ccc2nc(-c3ccco3)c(-c3ccco3)nc2c1)N1CCN(c2ccccc2)CC1 | inconclusive: 15.8 µM [inhibitor, single point] | –
69 | NC(=S)NC(=O)/C=C/c1ccccc1 | inconclusive: 35.5 µM [inhibitor, single point] | –
70 | Cc1ccc(O)c(C2=NCCNC(C(F)(F)F)=C2)c1 | inactive | –
71 | CSC(=S)N(C)C1CCS(=O)(=O)C1 (stereo not drawn) | inconclusive: 1.12 µM [activator, full curve, poor fit] | –
72 | O=C(CSc1nc(O)cc(=O)n1-c1ccccc1)NC1CCCCC1 | inconclusive: 20 µM [activator, partial curve] | –
73 | Cc1no[n+]([O-])c1COc1ccc(/C=N/n2nnnc2N)cc1 | inconclusive: 3.55 µM [activator, partial curve, poor fit] | –
